Consider two substances from publication PMC10174586.

Protein sequences, listed by entry. Tags and fused reporters are not part of them.
UniProt Q9H9Y6: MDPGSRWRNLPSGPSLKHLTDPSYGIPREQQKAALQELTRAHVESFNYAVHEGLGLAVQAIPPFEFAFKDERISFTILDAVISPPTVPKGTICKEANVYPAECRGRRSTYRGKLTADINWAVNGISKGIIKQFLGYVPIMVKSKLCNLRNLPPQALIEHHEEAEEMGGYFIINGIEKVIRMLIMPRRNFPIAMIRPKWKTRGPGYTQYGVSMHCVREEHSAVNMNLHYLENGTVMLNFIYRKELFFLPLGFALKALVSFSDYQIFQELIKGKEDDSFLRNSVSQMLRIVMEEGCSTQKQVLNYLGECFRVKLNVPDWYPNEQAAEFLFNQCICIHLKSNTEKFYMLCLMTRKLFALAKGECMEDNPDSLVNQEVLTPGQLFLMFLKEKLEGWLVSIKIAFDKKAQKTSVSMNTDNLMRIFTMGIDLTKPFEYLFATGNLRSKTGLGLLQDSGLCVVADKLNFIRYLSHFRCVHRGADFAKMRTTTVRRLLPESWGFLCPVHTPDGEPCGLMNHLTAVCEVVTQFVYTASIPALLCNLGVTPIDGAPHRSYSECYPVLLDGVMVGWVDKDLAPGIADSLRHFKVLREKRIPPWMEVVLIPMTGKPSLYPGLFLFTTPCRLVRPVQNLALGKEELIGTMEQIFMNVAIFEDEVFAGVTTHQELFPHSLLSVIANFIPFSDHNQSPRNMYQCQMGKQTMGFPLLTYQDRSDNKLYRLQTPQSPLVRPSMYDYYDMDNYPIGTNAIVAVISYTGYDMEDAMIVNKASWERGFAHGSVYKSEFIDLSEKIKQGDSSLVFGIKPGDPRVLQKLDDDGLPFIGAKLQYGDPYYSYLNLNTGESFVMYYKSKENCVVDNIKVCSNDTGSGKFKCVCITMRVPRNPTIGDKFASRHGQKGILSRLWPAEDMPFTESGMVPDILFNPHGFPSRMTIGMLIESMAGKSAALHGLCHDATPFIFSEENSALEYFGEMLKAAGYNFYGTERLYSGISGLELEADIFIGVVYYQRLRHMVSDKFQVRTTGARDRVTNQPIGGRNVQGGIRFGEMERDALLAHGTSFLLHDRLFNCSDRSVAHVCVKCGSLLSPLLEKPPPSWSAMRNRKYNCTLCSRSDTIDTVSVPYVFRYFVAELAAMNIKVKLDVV
UniProt O95602: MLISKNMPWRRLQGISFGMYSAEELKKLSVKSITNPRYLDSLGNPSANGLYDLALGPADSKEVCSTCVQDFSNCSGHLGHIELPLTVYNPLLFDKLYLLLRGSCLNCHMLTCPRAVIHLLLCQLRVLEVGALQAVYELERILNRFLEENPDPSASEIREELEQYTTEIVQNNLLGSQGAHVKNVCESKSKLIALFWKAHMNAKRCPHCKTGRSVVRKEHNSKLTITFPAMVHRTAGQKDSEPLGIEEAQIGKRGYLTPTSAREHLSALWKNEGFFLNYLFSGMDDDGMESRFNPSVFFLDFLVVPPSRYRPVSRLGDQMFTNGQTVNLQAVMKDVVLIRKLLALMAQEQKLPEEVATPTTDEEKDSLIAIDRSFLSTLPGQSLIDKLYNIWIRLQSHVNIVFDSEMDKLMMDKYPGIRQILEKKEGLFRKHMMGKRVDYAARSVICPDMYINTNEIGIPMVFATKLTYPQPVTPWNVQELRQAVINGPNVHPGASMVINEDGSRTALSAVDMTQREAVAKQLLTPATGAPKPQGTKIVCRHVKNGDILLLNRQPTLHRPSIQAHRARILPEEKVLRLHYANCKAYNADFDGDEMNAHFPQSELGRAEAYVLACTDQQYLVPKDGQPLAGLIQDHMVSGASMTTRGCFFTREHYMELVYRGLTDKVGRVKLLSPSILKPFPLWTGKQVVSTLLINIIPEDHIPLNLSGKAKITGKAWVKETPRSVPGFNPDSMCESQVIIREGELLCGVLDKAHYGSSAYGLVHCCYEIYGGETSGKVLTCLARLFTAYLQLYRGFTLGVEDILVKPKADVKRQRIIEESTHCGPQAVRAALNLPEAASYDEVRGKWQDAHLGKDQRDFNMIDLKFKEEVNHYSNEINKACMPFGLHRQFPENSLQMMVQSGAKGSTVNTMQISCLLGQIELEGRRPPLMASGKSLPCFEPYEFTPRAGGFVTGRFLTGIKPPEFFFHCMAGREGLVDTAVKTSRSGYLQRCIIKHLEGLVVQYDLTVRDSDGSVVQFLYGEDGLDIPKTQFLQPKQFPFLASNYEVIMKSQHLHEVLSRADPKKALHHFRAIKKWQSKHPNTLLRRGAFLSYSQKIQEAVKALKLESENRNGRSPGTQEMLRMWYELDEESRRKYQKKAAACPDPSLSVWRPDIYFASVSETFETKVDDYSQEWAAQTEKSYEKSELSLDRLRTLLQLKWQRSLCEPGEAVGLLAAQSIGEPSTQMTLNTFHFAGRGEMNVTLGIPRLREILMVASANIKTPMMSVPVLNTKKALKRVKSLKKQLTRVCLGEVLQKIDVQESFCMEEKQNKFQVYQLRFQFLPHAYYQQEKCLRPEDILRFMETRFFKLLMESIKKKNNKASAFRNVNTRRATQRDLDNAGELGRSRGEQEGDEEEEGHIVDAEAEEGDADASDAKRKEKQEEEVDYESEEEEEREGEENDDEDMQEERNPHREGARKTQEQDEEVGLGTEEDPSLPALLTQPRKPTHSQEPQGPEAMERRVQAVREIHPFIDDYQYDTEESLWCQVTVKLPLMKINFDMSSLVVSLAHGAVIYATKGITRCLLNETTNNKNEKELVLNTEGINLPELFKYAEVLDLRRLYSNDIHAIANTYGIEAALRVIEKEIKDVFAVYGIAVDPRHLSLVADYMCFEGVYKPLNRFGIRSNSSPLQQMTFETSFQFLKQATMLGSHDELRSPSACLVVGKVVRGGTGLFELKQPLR

These are yes or no findings as the source states them, for the method shown. In cells and extracts the contact can be indirect. Some entries that bind do so weakly or less than the wild type.

The target in assay [1] is RNA polymerase I subunit RPA135 (human (endogenous in A375)) (UniProt Q9H9Y6). Description: co-IP; endogenous proteins from A375 lysates (1 mg, RIPA buffer), precipitated with RPA194 (C-1) or RPA135 (H-15) antibodies or control IgG on Protein G Dynabeads, 5 washes with RIPA, reciprocal immunoblotting; cells transfected with Ctrl siRNA or RPA12 siRNA and treated with BMH-21 (1 uM) for 3 hours.

Assay [2] deals with RNA polymerase I catalytic subunit RPA194 (human (endogenous in A375)) (UniProt O95602). The description is as above.

Take “RNA polymerase I catalytic subunit RPA194 (from UniProt O95602 1-1720)”: the binding result in assay [1] is “binds”.

In the case of “RNA polymerase I subunit RPA135 (from UniProt Q9H9Y6 1-1135)”, the binding result in assay [2] is on record as “binds”.
